Laboratory results as given in PubChem BioAssay AID1347423 (Functional Genomics Laboratory (NCATS/FGL), 2020).
In all, about 52,000 sequences went through this assay and about 210 (0.4%) were called active.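 Rule for the calls: active = gene whose silencing raises cell survival under the drug, median off-target-corrected z-score across its silencing RNAs 2 or more; inactive = the rest.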 Some of the results follow.

Experiment: Resistance to Poly (ADP-Ribose) Polymerase inhibitor: Gene Identification via Genome-wide siRNA Screen
Conditions: mouse BRCA2 R2336H ES cells, olaparib, CellTiter-Glo viability; stronger effect = higher value
Method in brief: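 Genome-wide siRNA screen (3 siRNAs/gene, 20 nM) in mouse ES cells carrying hypomorphic BRCA2 R2336H; olaparib 500 nM added 48 h post-transfection, CellTiter-Glo viability 72 h later. Normalized to plate-median negative control; MAD z-scores, gene median, seed-adjusted.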
For GGAAGUGGUGAAGAAACAUTT against Hspcb, the z-score was inactive: -0.855.
With CCUUAAAACUGAUUACACCTT against Bach2 the z-score was inactive: 0.0765.
With CCAUUGUUUGGACUGUUCCTT against Olfr1066 the z-score was inactive: 0.248.
For “GGUCUUUAGCAGAGAAAAUTT against B230312I18Rik”, the z-score was inactive: -1.82.
In the case of CCUGAACCGUCGUCAACUUTT against Atp5d, the z-score is reported as inactive: -1.7.
With GGAGCAUCAUCUGAGCGAGTT against Idh3b the z-score was inactive: -1.35.
With “GCUGAGUCCAUUGAAGAAGTT against 1700081D17Rik” the z-score was inactive: -1.98.
With GCUAUUUCACCGUCAGAAUTT against MGC86034 the z-score was inactive: -1.31.
In the case of GCUAGGAUAACCCAGAUUATT against Dph2l2, the z-score is reported as inactive: 0.852.
For GCUAUGAGUUUGGAAAAAGTT against Tsga2, the z-score was inactive: 0.775.
In the case of “GGUGGCAGACAUUUCAACATT against D12Ertd647e”, the z-score is reported as inactive: -0.074.
In the case of GCCAUGGUACACUACAUCUTT against BC047207, the z-score is reported as inactive: 1.3.
In the case of UCCAUACUACUCAUCAAAUTT against Olfr68, the z-score is reported as inactive: 0.34.
With GGAAAUGCUUCUAAAGUCATT against Actg2 the z-score was inactive: 0.133.
In the case of GCCUAGAACUGAUGGAGCUTT against Trp73, the z-score is reported as inactive: 0.982.
In the case of GGCUUUUUCAACAUGUGGATT against Olfr853, the z-score is reported as inactive: 1.02.
In the case of “GCGAGGACAACGGAUUUUATT against E130309B19Rik”, the z-score is reported as inactive: 0.367.
For GGACUUCCACUCACGUUACTT against Ppp2r3a, the z-score was inactive: 0.371.
In the case of GGGUUUUUCAUAAACAAAGTT against Pdcd1lg2, the z-score is reported as inactive: 0.332.
In the case of GCCUACGAAGUCUUGUCAGTT against Dnajb8, the z-score is reported as inactive: -0.12.
For “CCCUAAGACUAUGGAGGCCTT against 4930451F05Rik”, the z-score was inactive: 0.362.
In the case of GCAAGAUCUUGAGUUUUGATT against Wnt3, the z-score is reported as inactive: 0.0548.
With GGUUCUCCCAGACCAAAGATT against Cables1 the z-score was inactive: -0.811.
With GGAGACUAAGGAGGUUUAUTT against Ruvbl1 the z-score was inactive: -2.98.
In the case of GGAAAUGUCUUAUGAUAACTT against Col5a1, the z-score is reported as inactive: -0.26.
For GCCGAUGACACUAUCUACCTT against Cryz, the z-score was inactive: -0.769.
For GGAGCCAACAACAACUCCUTT against Rbm9, the z-score was inactive: 0.45.
With CGUCCAGAGCUACGUAUGCTT against Olfr1490 the z-score was inactive: 0.402.
For GCUUCUACGCGGCUACUUUTT against Rbed1, the z-score was inactive: -0.0404.
In the case of GGCCAAAGUGGUGUGUUUCTT against Mta1, the z-score is reported as inactive: 0.138.
For GGGCAGUCAACUUAGUGAGTT against Olfr1208, the z-score was inactive: -0.325.
In the case of GGGUCAUGUACUUCUUUAUTT against Mip, the z-score is reported as inactive: 0.536.
With GGACAAAGAGGCAAUGGGATT against Dnajb9 the z-score was inactive: 0.614.
In the case of “GGACAUGUUUGGUGACUAUTT against Hel308-pending”, the z-score is reported as inactive: -1.09.
With GCUCGAUUCAGUCAUUGAGTT against Ak2 the z-score was inactive: -0.864.
With GGAAAGCCAUCGAAUUUCCTT against Il17re the z-score was inactive: -0.344.
In the case of GCACUUUGGUUUUACCGCCTT against Zfp385, the z-score is reported as inactive: 1.29.
In the case of CGGUGAUCGUCAUUUUAUUTT against Ap4m1, the z-score is reported as inactive: 0.616.
In the case of GCACGACACUCUGUGCAUCTT against BC037135, the z-score is reported as inactive: 0.875.
In the case of GCAAGUUACCAGGAUGCAATT against Pglyrp3, the z-score is reported as inactive: -0.57.
With GGGAUUUUGUACAUUUUUGTT against Egln3 the z-score was inactive: -0.414.
With GCGUGAUUCCAGUUUACAUTT against Mapk6 the z-score was inactive: 1.66.
In the case of GCAGUCACUUUUUAGUAUCTT against V1rb4, the z-score is reported as inactive: 0.464.
In the case of CCUUCGAUUGAUCUCUAAGTT against Eif4e, the z-score is reported as inactive: -1.54.
For GGGCUAAAUUCAUGGGUUCTT against Timp1, the z-score was inactive: -1.55.
In the case of “GGACAGCUUCAUCAAGCCUTT against 2610507L03Rik”, the z-score is reported as inactive: 0.916.
With GGCAAAUAGAGUGUGAACATT against Lgals12 the z-score was inactive: -1.27.
In the case of GGUGGAAGAUAUCAACUAGTT against Hip2, the z-score is reported as inactive: -0.168.
For GGUUCUGGAUUUCAUCACGTT against Coasy, the z-score was inactive: 0.299.
With GCUUUCCUACGUUUGAAAUTT against Coro1c the z-score was inactive: 0.42.
In the case of GGGAAAAUGCGAUUCAUGATT against P2ry14, the z-score is reported as inactive: 0.668.
For GGACAUUUAUCCCAUGACATT against Coro2b, the z-score was inactive: 0.473.
In the case of CCCUCCUCAGUAUUGUACUTT against Dtx2, the z-score is reported as inactive: -0.518.
With GCAAAAUUUGGCUUAAAGATT against Bank1 the z-score was inactive: 0.438.
For CCAUCUAUGGUAUGGAGCGTT against Abcg4, the z-score was inactive: 0.0082.
For GUGAACUCUUAUCGAUUACTT against V1rb8, the z-score was inactive: -0.0669.
For GGUAACCAUCAAAUAUUCCTT against Usp52, the z-score was inactive: -1.16.
For “GGUGAACUUCAUCUUCUCUTT against 1200011O22Rik”, the z-score was inactive: -1.08.
With UAGCCCAGCCUUCUUUUCCTT against Olfr658 the z-score was inactive: -0.869.
With GGAGAAACGGGUUUUUCAATT against Nfrkb the z-score was inactive: -0.0258.
For CCAGAACCAGACGCGUAACTT against Cox6b2, the z-score was inactive: 0.0858.
With GGAGGCAGAUGCUGGAAUCTT against Defb3 the z-score was inactive: 1.89.
For GCUUGAAUUUCUGUGGAGGTT against Olfr1320, the z-score was inactive: 1.13.
For GCGGAUAAGAUUGAUGUAGTT against Degs, the z-score was inactive: 0.886.
For GGUCAAUAUCUUGAUGGUATT against V1rh6, the z-score was inactive: 0.875.
In the case of CGGCUCCAGGCAAAUAUGGTT against Ezh1, the z-score is reported as inactive: -1.78.
With GGUGCGCUUCUAUGUUCCUTT against Ssrp1 the z-score was inactive: -1.33.
For GGUAUGUCUAAGAAAACCATT against Pik4ca, the z-score was inactive: 2.28.
In the case of GCGGUGAACUACCAUUACCTT against BC051244, the z-score is reported as inactive: -1.06.
For GCACAACAUAUGUUCCGCCTT against Pard3, the z-score was inactive: 1.8.
With GGGUCCUCAACACUUCAUATT against Gast the z-score was inactive: -1.41.
For GGAGACUAUCCUCAUUAUUTT against Smarca4, the z-score was inactive: 0.674.
For GGAAAGGUUUAAUCAUGAATT against Spred1, the z-score was inactive: 2.34.
For GAACUCCAGGGUAUAGUCUTT against Prss3, the z-score was inactive: 0.536.
In the case of GGGAAAACACAGAAUGCUATT against Brp44l, the z-score is reported as inactive: 0.518.
For CCCUGACGAAGCCAUACAUTT against Bcor, the z-score was inactive: -1.33.
For GGUCCACACCAGACAUCAATT against Wfdc5, the z-score was inactive: -0.101.
In the case of GCUCCUAACUUUUGUCAUATT against Ppp3r2, the z-score is reported as inactive: 0.272.
For GGCCUUUUCACAACACUAUTT against BC003267, the z-score was inactive: -0.413.
In the case of CGUGUACAUGCUCUACUUUTT against Lypla3, the z-score is reported as inactive: -0.338.
For CCAUGAAAGUCACUUGUAUTT against Map2k6, the z-score was inactive: -0.733.
With CGGCCUACAACUACCCAACTT against Tekt3 the z-score was inactive: 0.415.
For “CGUGUUUUAUGUCCGUCAUTT against 9330154K18Rik”, the z-score was inactive: 1.22.
For “GGCUUCGAUGUGUUUAUGCTT against E130319B15Rik”, the z-score was inactive: 0.524.
In the case of GGAAUGCACAAAUUGAAAATT against Edn1, the z-score is reported as inactive: 0.173.
For GGAGUGCAGUCACUAUUUGTT against Il2rg, the z-score was inactive: -1.04.
With “GGAGAGUGCUCAAUAAGACTT against 1300002C08Rik” the z-score was inactive: -0.219.
In the case of GGAAGAACUGGAAUGAUAUTT against Clecsf9, the z-score is reported as inactive: -1.15.
In the case of “GGGCUGGAAUUCUUUUGUGTT against C130090K23Rik”, the z-score is reported as inactive: -1.37.
For “GGCUGGAAUCGAUCAUUUCTT against 3830417A13Rik”, the z-score was inactive: 1.28.
With GGAGUUUGGAAUAAAAAGGTT against Flt3 the z-score was inactive: 0.00317.
For GGUUCACGUAUUAAAAACATT against Cryz, the z-score was inactive: 0.252.
In the case of GGAUAGCAACAGAAAACGUTT against Lgi3, the z-score is reported as inactive: 0.453.
With GGGCCUGAAGUAUGAAUGGTT against Lsm5 the z-score was inactive: -2.17.
With “GGUACUUUAAUGCUGAGGATT against 5730436H21Rik” the z-score was inactive: 0.03.
With AUAUCAGACUGACAUAGCATT against Obox5 the z-score was inactive: 1.84.
In the case of GGGUUCUCAAGAAUUAAAGTT against Fbn1, the z-score is reported as inactive: 1.02.
With GCACGGAUUAAUGUGAUGATT against Ilk the z-score was inactive: 0.147.
With GGACGACAACGACAUCAUGTT against Sfrp2 the z-score was inactive: 0.0688.
With GCCGUAUGGAGCCAUAGCUTT against Tes the z-score was inactive: 0.932.
For “GGAGGGAAAUUUGGGACUUTT against 0610039J04Rik”, the z-score was inactive: 1.35.
In the case of “GGAAGAUGAACAUCAAACATT against 9030617O03Rik”, the z-score is reported as inactive: 1.22.
With GCCGUUUUAAGAUACCGAUTT against Pde1c the z-score was inactive: 0.0937.
With GCGUGUGAAGGCAACCAUUTT against Nos3 the z-score was inactive: -1.
With GGACACAGGACUCUACACCTT against Psg16 the z-score was inactive: 1.52.
